In the supplement of paper PMC7877785:
± gives the uncertainty stated by the source. The uncertainty is large for many entries.

Test: self-splicing fitness, log relative to wild type (ln ratio); higher = more splicing; Tetrahymena group I intron in knt gene, E. coli kanamycin selection, DiMSum; sequences stand for … in CUCUCU…GGAGGGAAAAGUUAUCAGGCAUGCACCUGGUAGCUAGUCUUUAAACCAAUAGAUUGCAUCGGUUUAAAAGGCAAGACCGUCAAAUUGCGGGAAAGGGGUCAACAGCCGUUCAGUACCAAGUCUCAGGGGAAACUUUGAGAUGGCCUUGCAAAGGGUAUGGUAAUAAGCUGACGGACAUGGUCCUAACCACGCAGCCAAGUCCUAAGUCAACAGAUCUUCUGUUGAUAUGGAUGCAGUUCACAGACUAAAUGUCGGUCGGGGAAGAUGUAUUCUUCUCAUAAGAUAUAGUCGGACCUCUCCUUAAUGGGAGCUAGCGGAUGAAGUGAUGCAACACUGGAGCCGCUGGGAACUAAUUUGUAUGCGAAAGUAUAUUGAUUAGUUUUGGAGUACUCGUGGUCG
Summary of the method: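 The eight P1ex-region nucleotides of an intron in the knt kanamycin-resistance gene on pET-22b(+) were all randomised and the library put into E. coli BL21(DE3). Six replicate transformations were grown overnight at 37°C or 30°C on LB agar with or without 25 μg/mL kanamycin, together with 100 μg/mL carbenicillin, 50 μM IPTG and 0.2% rhamnose. Colonies were pooled and amplicon-sequenced on an Illumina HiSeq 2500. Fitness from DiMSum is the error-weighted combination of wild-type-normalised replicate fold changes, kanamycin over none.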

Sequence	self-splicing fitness (ln) (30 °C)	self-splicing fitness (ln) (37 °C)
CAUGAGCAAUAUUACGUCUC	-2.83 ± 0.22	-2.83 ± 0.53
GUAUAGCAAUAUUACGUAGA	-3.2 ± 0.76	–
UUCCAGCAAUAUUACGCCGC	-2.6 ± 0.63	-2.9 ± 0.75
UGUUAGCAAUAUUACGUUCA	0.071 ± 0.12	-0.114 ± 0.14
UGUAAGCAAUAUUACGGUUC	-3.6 ± 0.78	–
AGGGAGCAAUAUUACGAUAC	-2.29 ± 0.9	–
GUUGAGCAAUAUUACGCCGA	–	-1.69 ± 1.2
UUCUAGCAAUAUUACGCCAG	-0.868 ± 1.4	–
GCAGAGCAAUAUUACGAGGA	–	-1.79 ± 0.82
UCGCAGCAAUAUUACGCCAC	-2.23 ± 0.51	-2.56 ± 0.76
UUUGAGCAAUAUUACGACGC	-4.33 ± 1	-2.52 ± 0.63
CGUGAGCAAUAUUACGGCAC	-3.19 ± 1.2	-2.39 ± 1.1
UCAUAGCAAUAUUACGAUAC	–	-3.03 ± 0.6
UCUGAGCAAUAUUACGCUUC	–	-3.2 ± 0.73
GGUGAGCAAUAUUACGGACU	-2.44 ± 1.1	-0.234 ± 0.69
UUGGAGCAAUAUUACGAUUC	-4.36 ± 0.73	–
CUUAAGCAAUAUUACGACCU	–	-1.47 ± 0.63
ACGGAGCAAUAUUACGCAAG	-3.14 ± 0.27	-1.79 ± 0.26
CGGGAGCAAUAUUACGACUA	-1.96 ± 0.82	-1.62 ± 0.6
ACCUAGCAAUAUUACGGAAC	–	-2.64 ± 0.54
AGUAAGCAAUAUUACGCCCG	–	-0.44 ± 1.4
GCGGAGCAAUAUUACGGGCC	–	-0.458 ± 0.79
AGUGAGCAAUAUUACGGAAC	–	-2.94 ± 0.54
UCUGAGCAAUAUUACGCCGC	-0.631 ± 1.2	–

Pulled one by one from the list above:
Sequence	self-splicing fitness (ln) (30 °C)	self-splicing fitness (ln) (37 °C)
UCAUAGCAAUAUUACGAUAC	–	-3.03 ± 0.6
CGGGAGCAAUAUUACGACUA	-1.96 ± 0.82	-1.62 ± 0.6
CGUGAGCAAUAUUACGGCAC	-3.19 ± 1.2	-2.39 ± 1.1
UCGCAGCAAUAUUACGCCAC	-2.23 ± 0.51	-2.56 ± 0.76
UUGGAGCAAUAUUACGAUUC	-4.36 ± 0.73	–
CUUAAGCAAUAUUACGACCU	–	-1.47 ± 0.63
AGUGAGCAAUAUUACGGAAC	–	-2.94 ± 0.54

Continued.

Sequence	self-splicing fitness (ln) (30 °C)	self-splicing fitness (ln) (37 °C)
CGUAAGCAAUAUUACGUAGG	-1.09 ± 0.082	-0.149 ± 0.11
CUGUAGCAAUAUUACGGCGC	-3.53 ± 0.6	-1.49 ± 0.51
CGGGAGCAAUAUUACGGUAC	–	-1.84 ± 0.64
UCAUAGCAAUAUUACGUGAC	-2.25 ± 0.51	-3.21 ± 0.74
GGAGAGCAAUAUUACGGGGA	–	-3.33 ± 1
GACCAGCAAUAUUACGGUCC	–	-4.49 ± 0.59
GAGGAGCAAUAUUACGCCUU	-0.135 ± 1.2	-0.681 ± 1
GGUGAGCAAUAUUACGUCCC	–	-1.54 ± 0.58
AUGGAGCAAUAUUACGCACG	-2.3 ± 0.3	-1.26 ± 0.34
UGUUAGCAAUAUUACGAUCG	-0.427 ± 0.26	-0.0339 ± 0.28
GUGGAGCAAUAUUACGUGGC	-3.46 ± 0.75	-3.21 ± 0.74
GGCGAGCAAUAUUACGGUCC	-2.64 ± 0.52	–
AUAAAGCAAUAUUACGGGUU	-2.17 ± 0.09	-1.17 ± 0.098
UGGCAGCAAUAUUACGGUCG	-0.881 ± 0.083	0.133 ± 0.13
AGCGAGCAAUAUUACGUAAG	-3.4 ± 0.53	–
UGAGAGCAAUAUUACGACCU	–	-0.595 ± 1
CGGGAGCAAUAUUACGGCUU	-2.04 ± 0.57	-2.56 ± 0.76
UAGCAGCAAUAUUACGACAC	-3.35 ± 0.62	–
AACUAGCAAUAUUACGCGAC	–	-2.26 ± 0.56
CUUAAGCAAUAUUACGCCCU	-3.17 ± 0.32	-1.96 ± 0.43
UGGGAGCAAUAUUACGUCAU	-2.99 ± 0.55	-3.61 ± 0.6
UUCUAGCAAUAUUACGCUAC	–	-2.88 ± 0.75
UUUGAGCAAUAUUACGCGCU	-5.13 ± 1	-2.32 ± 0.63
AGGAAGCAAUAUUACGCAAC	0.271 ± 1.2	-2.08 ± 1.1

Sequence	self-splicing fitness (ln) (30 °C)	self-splicing fitness (ln) (37 °C)
CCGUAGCAAUAUUACGCUGG	-4.58 ± 0.72	-2.52 ± 0.55
CUUAAGCAAUAUUACGAAAC	-3.58 ± 1	-2.09 ± 0.65
GUGUAGCAAUAUUACGCGUU	-4.08 ± 0.72	–
UCUAAGCAAUAUUACGCGAC	-4.84 ± 0.73	–
UCCAAGCAAUAUUACGCGGC	-2.74 ± 0.23	-2.94 ± 0.23
AUCGAGCAAUAUUACGUAAC	–	-2.18 ± 1.1
ACUGAGCAAUAUUACGAGCU	-4.94 ± 0.72	–
CUCCAGCAAUAUUACGCACC	-0.926 ± 0.51	–
CAGGAGCAAUAUUACGCGAU	–	-3.09 ± 1
UCGCAGCAAUAUUACGCCAU	-3.46 ± 0.53	–
UUUAAGCAAUAUUACGCCCG	-3.27 ± 0.57	0.00661 ± 0.87
CUGCAGCAAUAUUACGCAUC	-4.48 ± 1	–
GGUCAGCAAUAUUACGACGA	-0.308 ± 0.072	0.501 ± 0.11
CGUGAGCAAUAUUACGUCGU	-4.38 ± 0.52	–
UCCGAGCAAUAUUACGCCAA	-2.68 ± 0.68	–
ACAAAGCAAUAUUACGCGGG	-2.47 ± 0.09	-1.01 ± 0.09
UCGCAGCAAUAUUACGUCUG	-4.75 ± 0.51	–
AUAGAGCAAUAUUACGCCCG	-2.17 ± 0.87	-1.53 ± 0.71
AGUUAGCAAUAUUACGAUUA	-1.12 ± 0.84	–
ACUGAGCAAUAUUACGACCC	-2.44 ± 0.68	–
GGGCAGCAAUAUUACGCCCG	–	-1.73 ± 0.59
UUAAAGCAAUAUUACGUUUU	-3.84 ± 0.2	-2.27 ± 0.18
AAGAAGCAAUAUUACGAGUC	-2.53 ± 0.23	-1.51 ± 0.25
UUCCAGCAAUAUUACGAUCU	-4.11 ± 0.59	-2.08 ± 0.56

Sequence	self-splicing fitness (ln) (30 °C)	self-splicing fitness (ln) (37 °C)
UAUAAGCAAUAUUACGAGUC	–	-2.17 ± 0.78
AGUGAGCAAUAUUACGUAUC	–	-3.57 ± 0.52
GCCGAGCAAUAUUACGAUCC	-0.829 ± 0.68	-0.785 ± 0.93
GUGGAGCAAUAUUACGAAGC	–	-1.62 ± 1.1
UAGGAGCAAUAUUACGCAGA	-2.02 ± 1.2	-1.95 ± 0.6
AUUGAGCAAUAUUACGCCGU	-2.53 ± 0.77	–
CUUCAGCAAUAUUACGGUAG	-1.94 ± 0.12	-0.92 ± 0.14
UUCCAGCAAUAUUACGGAAC	-3.11 ± 0.53	–
UUGUAGCAAUAUUACGCUAU	–	-1.46 ± 0.63
GAGAAGCAAUAUUACGGCGG	-1.9 ± 0.12	-1.25 ± 0.15
CCCUAGCAAUAUUACGAAAG	–	-2.75 ± 0.54
CGUAAGCAAUAUUACGGCUC	-2.57 ± 0.58	–
UAAGAGCAAUAUUACGCAAC	-3.16 ± 0.52	–
UAAUAGCAAUAUUACGACAA	-2.23 ± 0.16	-1.01 ± 0.14
CUCUAGCAAUAUUACGACUG	-1.68 ± 0.15	-0.621 ± 0.18
UUCUAGCAAUAUUACGCCGC	-1.87 ± 0.58	-1.79 ± 1.2
CAAUAGCAAUAUUACGCAUC	-3.39 ± 0.73	–
UUGGAGCAAUAUUACGUAAC	-2.87 ± 0.75	-0.777 ± 0.56
CUCUAGCAAUAUUACGUUAA	–	-4.07 ± 0.72
UGUGAGCAAUAUUACGUCAC	–	-3.42 ± 1
CGAUAGCAAUAUUACGUACC	-2.95 ± 1.1	–
UUUGAGCAAUAUUACGUCAC	-2.81 ± 0.62	-0.687 ± 0.53
UCUCAGCAAUAUUACGUCAU	-3.13 ± 0.2	-3.29 ± 0.27
UUUUAGCAAUAUUACGGUGG	-1.24 ± 0.084	-1.16 ± 0.13

Sequence	self-splicing fitness (ln) (30 °C)	self-splicing fitness (ln) (37 °C)
CUACAGCAAUAUUACGAAUC	-4.32 ± 0.23	-2.61 ± 0.23
GGCUAGCAAUAUUACGAGAC	–	-1.99 ± 0.5
AGCGAGCAAUAUUACGACAG	-1.98 ± 0.56	–
CUUAAGCAAUAUUACGAACC	-2.86 ± 0.61	–
UUUGAGCAAUAUUACGCCGC	-3.02 ± 0.61	-1.69 ± 0.68
CGCGAGCAAUAUUACGACCC	–	-1.35 ± 0.51
UAAUAGCAAUAUUACGACUU	-0.84 ± 0.1	-0.376 ± 0.094
AGAAAGCAAUAUUACGGAAG	-2.64 ± 0.19	-1.71 ± 0.22
UACGAGCAAUAUUACGCGGA	-2.66 ± 0.76	-1.77 ± 0.67
UCUGAGCAAUAUUACGUGCU	–	-3.65 ± 0.59
ACAGAGCAAUAUUACGAAAC	–	-1.94 ± 0.57
UCGUAGCAAUAUUACGUUAU	-4.46 ± 0.42	-2.64 ± 0.34
CAGUAGCAAUAUUACGGAAC	-3.72 ± 1	–
GUUGAGCAAUAUUACGUACC	–	-1.52 ± 0.61
AGGAAGCAAUAUUACGAGAA	-3.01 ± 0.54	–
UCGGAGCAAUAUUACGACCU	-2.52 ± 0.8	–
UCCUAGCAAUAUUACGCUCG	–	-2.89 ± 0.75
CGAGAGCAAUAUUACGCGCG	–	-2.65 ± 0.55
UAUGAGCAAUAUUACGCUCU	–	-2.05 ± 0.52
GGGGAGCAAUAUUACGCAGU	-4.26 ± 1	–
CGAGAGCAAUAUUACGUAUU	-2.53 ± 0.28	-1.4 ± 0.28
UGUUAGCAAUAUUACGAGUC	–	-3.24 ± 0.6
